Experimental data taken from the supplement of paper PMC12578635.
The list shows a part of the results. No stated cut-off is given here; in the data, active = 150% or more and inactive = the rest. Repeats are few or missing, and single values can be far off.

system: Staphylococcus aureus JE2-lux inside RAW 264.7 macrophages; assay: intracellular bacterial bioluminescence relative to DMSO vehicle; higher = higher intracellular bacterial metabolic activity; conditions: 10 µM; treatment time 4 h; gentamicin 50 µg/ml

Intracellular bacterial bioluminescence, inactive:
O=C(CSc1ncnc2c1cnn2-c1ccc(Cl)cc1)Nc1ccc2c(c1)OCCO2 89.4%
Cc1ccc2c(cnn2C(=O)NCCc2ccccc2)c1 58.3%
Cc1ccc(Cn2c(CCCC(=O)NCCN(C)C)nc3cccnc32)cc1 106%
CCOc1ccccc1NC(=O)c1nn(C)c(C(F)(F)F)c1Cl 115%
Cc1ccc(C)c(N2CCN(c3c4c(nc5nc(C)nn35)CCCC4)CC2)c1 46.9%
c1ccn(-c2ncnc3sc4c(c23)CCCC4)c1 94.1%
O=C(CN1C(=O)c2cccc3cccc(c23)C1=O)Nc1nc2ccccc2s1 104%
Cc1c(Cl)ccc2sc(N3CCN(C(=O)/C=C/c4cccc([N+](=O)[O-])c4)CC3)nc12 77.8%
O=C(NCc1ccccn1)C(=O)NCC(c1cccs1)N1CCc2ccccc21 (stereo not given) 77.9%
CC(=O)N(Cc1cccnc1)c1nc2cc3c(cc2s1)OCCO3 86.1%
Cc1ccc(C)c(NC(=O)Cn2c(=O)n(Cc3ccco3)c(=O)c3sc4ccccc4c32)c1 104%
CCCSc1nc2c(c(=O)[nH]1)C(c1ccc(C)o1)C1=C(CCCC1=O)N2 (stereo not given) 101%
COC(=O)c1c(-c2ccc(F)cc2)noc1Nc1cc(C)ccc1OC 106%
Cn1c(=O)c2c(nc3oc(-c4ccc(F)cc4)cn32)n(C)c1=O 100%
O=C1CCc2cc(S(=O)(=O)N3CCCC(CN4CCCC4)C3)ccc2N1 (stereo not given) 146%
CCCC1N=C2c3ccccc3N=C(SC(C)C(=O)Nc3ccccc3)N2C1=O (stereo not given) 96.2%
COc1ccc2c(c1OC)C(=O)N(c1n[nH]c(SC)n1)C2=O 81.3%
COc1ccc([N+](=O)[O-])cc1/C=C(\C#N)c1nc(-c2cc3ccccc3oc2=O)cs1 114%
CCNC(=O)c1cc2c(=O)n3ccccc3nc2n(Cc2ccc(OC)cc2)c1=N 96.2%
CCN(CC)C(=O)c1sc2nc3cc(C)c(C)cc3cc2c1N 80%
CCOc1cc(-c2nc3ccc(C)cn3c2NCC2CCCO2)ccc1O (stereo not given) 85.8%
CCc1cc(Sc2nnc(NC(=O)Nc3cccc(Cl)c3)s2)n2ncnc2n1 93.1%
Cc1nc2ccc(NC(=S)NC(=O)CN3C(=O)CCC3=O)cc2s1 65.8%
CCOC(=O)c1sc2nc(C)nc(Oc3cccc(OC)c3)c2c1C 66.7%
COc1ccc2cc(C(=O)N3CCN(c4cc(C)nc(C)n4)CC3)n(C)c2c1 108%

2 records drawn at random from the list so far:
Intracellular bacterial bioluminescence, inactive:
O=C(CN1C(=O)c2cccc3cccc(c23)C1=O)Nc1nc2ccccc2s1 104%
Cc1nc2ccc(NC(=S)NC(=O)CN3C(=O)CCC3=O)cc2s1 65.8%
